Assay results: PubChem BioAssay AID2417 (National Center for Advancing Translational Sciences (NCATS), 2010)
Screen size: about 140,000 compounds; about 4,300 (3.1%) were called active. This list was built around the results that the source calls inconclusive (neither active nor inactive); the mix of calls is not that of the screen.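 Rule for the calls: active = readout at or below -70, meaning at least 70% loss of cells showing the perinucleolar compartment, a nuclear body marking cancer cells; inconclusive = readout between -30 and a set limit; inactive = the rest.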

experiment: High Content Assay for Compounds that inhibit the Assembly of the Perinucleolar Compartment; settings: PC3M PTB-GFP, PNC prevalence imaging, 16 h; at 10 µM; hits give low values;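 note: plate controls were DMSO wells for no effect and camptothecin positive control wells for full effect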
Summary of the method: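 PC3M cells stably expressing PTB-GFP, 750–1000 cells/well, treated 16 h at 37 °C with compound (23 nl of library stock), in duplicate. After paraformaldehyde fixation and Hoechst stain, imaged at 20x; PNC prevalence scored by image analysis.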

**Q.** Which activity change (PNC), negative = inhibition does the source give for Cc1cccc2cc(CN(Cc3ccc(F)cc3)Cc3nnnn3C3CCCC3)c(=O)[nH]c12 here?
**A.** Its activity change (PNC), negative = inhibition is inactive: -17.7%.

**Q.** For COC(=O)C(C)NC(=O)C1CCCN1S(=O)(=O)c1cc(C)c(Cl)cc1C (configuration not stated), which activity change (PNC), negative = inhibition is on record?
**A.** The activity change (PNC), negative = inhibition was inconclusive: -54.8%.

**Q.** For O=C1CSC(c2ccc(F)cc2)N1c1nc2ccccc2s1 (configuration not stated), which activity change (PNC), negative = inhibition is on record?
**A.** The activity change (PNC), negative = inhibition was inconclusive: -32.4%.

**Q.** Which activity change (PNC), negative = inhibition does the source give for Cc1[nH]n(-c2cccc3ccccc23)c(=O)c1/C=N/NC(=O)c1cccc([N+](=O)[O-])c1 here?
**A.** The activity change (PNC), negative = inhibition was inactive: -12%.

**Q.** Which activity change (PNC), negative = inhibition does the source give for Cc1noc(C)c1S(=O)(=O)N(CC(=O)N1CCn2c1nc1ccccc12)c1ccc(C(C)C)cc1 here?
**A.** Its activity change (PNC), negative = inhibition is inconclusive: -45.6%.

**Q.** Which activity change (PNC), negative = inhibition does the source give for CN(C)S(=O)(=O)c1ccc(C(=O)Nc2ccc(Cl)cc2)cc1 here?
**A.** The activity change (PNC), negative = inhibition was inconclusive: -56.1%.

**Q.** With Cc1cc2c(c(=O)o1)C(C1C=CCCC1)C(C#N)=C(N)O2 (configuration not stated) as the compound, how does the activity change (PNC), negative = inhibition read?
**A.** The activity change (PNC), negative = inhibition was inactive: 13.5%.

**Q.** Which activity change (PNC), negative = inhibition does the source give for CCN(CC)c1ccc(/C=C(\C#N)C(=O)c2ccc(Br)cc2)cc1 here?
**A.** The activity change (PNC), negative = inhibition was inactive: -20.1%.

**Q.** With CC(C)NC(=O)Cn1c(=O)cnc2ccccc21 as the compound, how does the activity change (PNC), negative = inhibition read?
**A.** The activity change (PNC), negative = inhibition was inconclusive: -55%.

**Q.** With Cc1cccc(C(=O)NC2CC3CCCC(C2)N3S(=O)(=O)c2ccccc2)c1 (configuration not stated) as the compound, how does the activity change (PNC), negative = inhibition read?
**A.** Its activity change (PNC), negative = inhibition is inconclusive: -42.4%.

**Q.** With CC(=O)C1=C(O)C(=O)N(CCCO)C1c1ccccc1 (configuration not stated) as the compound, how does the activity change (PNC), negative = inhibition read?
**A.** The activity change (PNC), negative = inhibition was inconclusive: -43.6%.

**Q.** For Cc1ccc([N+](=O)[O-])cc1N=Cc1ccc(Br)s1, which activity change (PNC), negative = inhibition is on record?
**A.** The activity change (PNC), negative = inhibition was inconclusive: -38.8%.

**Q.** With OC(CNCCc1ccc(C(F)(F)F)cc1)COc1cccc2ccccc12 (configuration not stated) as the compound, how does the activity change (PNC), negative = inhibition read?
**A.** The activity change (PNC), negative = inhibition was inconclusive: -49.7%.

**Q.** Which activity change (PNC), negative = inhibition does the source give for C=CCn1c(SCC(=O)c2c(N)n(CCC)c(=O)n(C)c2=O)nc2sc(CC)cc2c1=O here?
**A.** The activity change (PNC), negative = inhibition was inconclusive: -31.2%.

**Q.** With CC(NC(=O)Nc1ccc(O)cc1)(C(F)(F)F)C(F)(F)F as the compound, how does the activity change (PNC), negative = inhibition read?
**A.** The activity change (PNC), negative = inhibition was active: -100%.

**Q.** For CCCN(CC(=O)Nc1cc(Cl)ccc1Cl)C(=O)/C=C/c1ccco1, which activity change (PNC), negative = inhibition is on record?
**A.** The activity change (PNC), negative = inhibition was inconclusive: -55.6%.

**Q.** With Cc1cc(S(=O)(=O)Nc2ccc(C(=O)N3CCN(C(=O)c4ccco4)CC3)cc2)ccc1F as the compound, how does the activity change (PNC), negative = inhibition read?
**A.** Its activity change (PNC), negative = inhibition is inconclusive: -40.2%.

**Q.** Which activity change (PNC), negative = inhibition does the source give for CN1CCN(C(CNS(=O)(=O)c2ccc(Cl)cc2)c2cccnc2)CC1 (configuration not stated) here?
**A.** Its activity change (PNC), negative = inhibition is active: -100%.

**Q.** For COc1ccc(N2CCN(C(=O)CSc3nnc(C)c(=O)[nH]3)CC2)cc1, which activity change (PNC), negative = inhibition is on record?
**A.** Its activity change (PNC), negative = inhibition is inconclusive: -33.9%.

**Q.** Which activity change (PNC), negative = inhibition does the source give for COc1ccc2ccccc2c1/C=N/NC(=O)c1cccc(Br)c1 here?
**A.** Its activity change (PNC), negative = inhibition is inactive: -17.2%.

**Q.** With Cc1onc(-c2ccccc2Cl)c1C(=O)NCc1ccco1 as the compound, how does the activity change (PNC), negative = inhibition read?
**A.** The activity change (PNC), negative = inhibition was inconclusive: -58.8%.

**Q.** Which activity change (PNC), negative = inhibition does the source give for CCCOC(=O)c1[nH]c2c(c1C)C(=O)CC(c1cccs1)C2 (configuration not stated) here?
**A.** Its activity change (PNC), negative = inhibition is active: -85.9%.

**Q.** Which activity change (PNC), negative = inhibition does the source give for CCn1c(SCC(=O)N2CCCc3ccccc32)nnc1-c1cccs1 here?
**A.** Its activity change (PNC), negative = inhibition is inconclusive: -59.9%.

**Q.** Which activity change (PNC), negative = inhibition does the source give for CN(c1ccc(C(=O)Nc2ccccc2C(=O)N2CCCC2)cc1)S(C)(=O)=O here?
**A.** The activity change (PNC), negative = inhibition was inconclusive: -34.3%.

**Q.** For Cc1cccc(C)c1NC(=O)COC(=O)C1Cc2ccccc2CN1C(=O)c1ccccc1 (configuration not stated), which activity change (PNC), negative = inhibition is on record?
**A.** Its activity change (PNC), negative = inhibition is inconclusive: -32.3%.

**Q.** Which activity change (PNC), negative = inhibition does the source give for CCN1C(=O)S/C(=C\c2ccc(N3CCOCC3)cc2C)C1=O here?
**A.** The activity change (PNC), negative = inhibition was inactive: -29.4%.

**Q.** With O=C(Nc1cccc(O)c1)N1CCOCC1 as the compound, how does the activity change (PNC), negative = inhibition read?
**A.** The activity change (PNC), negative = inhibition was active: -100%.

**Q.** With CO/N=C(\c1nonc1N)N1CCN(c2ccc(Cl)cc2[N+](=O)[O-])CC1 as the compound, how does the activity change (PNC), negative = inhibition read?
**A.** The activity change (PNC), negative = inhibition was inactive: -11.1%.

**Q.** Which activity change (PNC), negative = inhibition does the source give for CC(Sc1nc2cc([N+](=O)[O-])ccc2n1-c1cccc(C(F)(F)F)c1)C(=O)NC(N)=O (configuration not stated) here?
**A.** Its activity change (PNC), negative = inhibition is inconclusive: -37.9%.

**Q.** With CC(OC(=O)c1cccs1)C(=O)NCc1ccco1 (configuration not stated) as the compound, how does the activity change (PNC), negative = inhibition read?
**A.** Its activity change (PNC), negative = inhibition is inconclusive: -70.6%.

**Q.** Which activity change (PNC), negative = inhibition does the source give for COc1ccc(NC(=S)NNc2ccc([N+](=O)[O-])cc2S(=O)(=O)Nc2ccc(C)cc2C)cc1 here?
**A.** The activity change (PNC), negative = inhibition was inconclusive: -78.3%.

**Q.** For CC(C)(C)c1ccc(-c2n[nH]c(=S)n2C2CCCC2)cc1, which activity change (PNC), negative = inhibition is on record?
**A.** The activity change (PNC), negative = inhibition was inactive: -28.5%.

**Q.** Which activity change (PNC), negative = inhibition does the source give for Cc1cccc2sc(NC(=O)CCNS(=O)(=O)c3cccs3)nc12 here?
**A.** Its activity change (PNC), negative = inhibition is inconclusive: -47.7%.

**Q.** Which activity change (PNC), negative = inhibition does the source give for CCOc1ccc(/C=C2/SC(=S)N(n3c(C)ccc3C)C2=O)cc1 here?
**A.** The activity change (PNC), negative = inhibition was inconclusive: -30.5%.

**Q.** With COc1oc(-c2ccc(Cl)cc2)nc1C(F)(F)F as the compound, how does the activity change (PNC), negative = inhibition read?
**A.** The activity change (PNC), negative = inhibition was inconclusive: -32.2%.

**Q.** For O=C(Nc1ccccc1Cl)N1CCN(C/C=C/c2ccccc2)CC1, which activity change (PNC), negative = inhibition is on record?
**A.** Its activity change (PNC), negative = inhibition is active: -90.9%.

**Q.** With O=C1C(=C(c2ccccc2)c2ccccc2)Nc2ccccc21 as the compound, how does the activity change (PNC), negative = inhibition read?
**A.** Its activity change (PNC), negative = inhibition is inconclusive: -54.3%.

**Q.** Which activity change (PNC), negative = inhibition does the source give for O=C1CC(c2c[nH]c3ccccc23)C(=O)N1 (configuration not stated) here?
**A.** The activity change (PNC), negative = inhibition was inconclusive: -47.7%.

**Q.** Which activity change (PNC), negative = inhibition does the source give for CCn1c(SC(=O)NC2CCCCC2)nnc1-c1cccs1 here?
**A.** The activity change (PNC), negative = inhibition was inactive: 11.9%.

**Q.** With COc1ccc(CC(=S)N2CCOCC2)cc1 as the compound, how does the activity change (PNC), negative = inhibition read?
**A.** The activity change (PNC), negative = inhibition was inconclusive: -47.7%.

**Q.** For CC(C)CNC(=S)NC(=O)c1ccccc1Cl, which activity change (PNC), negative = inhibition is on record?
**A.** Its activity change (PNC), negative = inhibition is active: -134%.

**Q.** For O=C(CNc1ccc2ccccc2c1)N/N=C/C=C/c1cccc([N+](=O)[O-])c1, which activity change (PNC), negative = inhibition is on record?
**A.** Its activity change (PNC), negative = inhibition is inconclusive: -68.1%.

**Q.** Which activity change (PNC), negative = inhibition does the source give for COc1ccc(Oc2coc3cc(OC(=O)/C=C/c4ccccc4)ccc3c2=O)cc1 here?
**A.** Its activity change (PNC), negative = inhibition is active: -80.8%.

**Q.** Which activity change (PNC), negative = inhibition does the source give for CCOC(=O)c1c(C)c(C(=O)N2CCN(C(=O)c3ccco3)CC2)c(C)n1C here?
**A.** The activity change (PNC), negative = inhibition was inactive: 16.8%.

**Q.** For CCOC(=O)c1c(C)[nH]c(C)c1C(=O)COC(=O)/C=C/c1cccc(F)c1, which activity change (PNC), negative = inhibition is on record?
**A.** Its activity change (PNC), negative = inhibition is inconclusive: -35.5%.

**Q.** For COC(=O)NCC(C)OC(=O)Nc1cccc(Cl)c1 (configuration not stated), which activity change (PNC), negative = inhibition is on record?
**A.** Its activity change (PNC), negative = inhibition is inconclusive: -31.9%.

**Q.** With CCOc1cccc(-c2nnc3sc(-c4cccs4)nn23)c1 as the compound, how does the activity change (PNC), negative = inhibition read?
**A.** Its activity change (PNC), negative = inhibition is active: -127%.

**Q.** With O=C(OCC(=O)N1CCCc2ccccc21)c1cnc(Cl)c(Cl)c1 as the compound, how does the activity change (PNC), negative = inhibition read?
**A.** Its activity change (PNC), negative = inhibition is inconclusive: -48%.

**Q.** With COc1ccc(Br)cc1/C=C/C(=O)Nc1ccc2ccccc2c1 as the compound, how does the activity change (PNC), negative = inhibition read?
**A.** The activity change (PNC), negative = inhibition was inconclusive: -47.8%.

**Q.** Which activity change (PNC), negative = inhibition does the source give for COC(=O)c1ccc(Sc2ccc(C)cc2)c(N)c1 here?
**A.** The activity change (PNC), negative = inhibition was inconclusive: -40.6%.

**Q.** For O=C1S/C(=C\c2ccccn2)C(=O)N1Cc1ccccc1F, which activity change (PNC), negative = inhibition is on record?
**A.** The activity change (PNC), negative = inhibition was inactive: -22.6%.

**Q.** Which activity change (PNC), negative = inhibition does the source give for CCN(CC)S(=O)(=O)c1ccc(Cl)c(C(=O)NCc2ccccc2Cl)c1 here?
**A.** The activity change (PNC), negative = inhibition was inactive: -12.1%.

**Q.** Which activity change (PNC), negative = inhibition does the source give for O=C(NC(C(=O)c1ccccc1)n1c(=O)cc[nH]c1=S)c1ccccc1 (configuration not stated) here?
**A.** Its activity change (PNC), negative = inhibition is inconclusive: -34.6%.

**Q.** Which activity change (PNC), negative = inhibition does the source give for CCC(C)(C)NC(=O)c1ccc2c(c1)N(CC(=O)OC)C(=O)C(C)(C)O2 here?
**A.** Its activity change (PNC), negative = inhibition is inconclusive: -30.5%.

**Q.** For COc1ccccc1NC(=O)c1ccc(S(=O)(=O)N(C)C)cc1, which activity change (PNC), negative = inhibition is on record?
**A.** Its activity change (PNC), negative = inhibition is inconclusive: -51.6%.

**Q.** With Cc1ccc2c(c1)nnn2C1CCN(S(=O)(=O)c2ccc3ccccc3c2)CC1 as the compound, how does the activity change (PNC), negative = inhibition read?
**A.** The activity change (PNC), negative = inhibition was inconclusive: -43.7%.

**Q.** With COc1ccc(S(=O)(=O)NCCSCc2ccco2)cc1Cl as the compound, how does the activity change (PNC), negative = inhibition read?
**A.** The activity change (PNC), negative = inhibition was inconclusive: -36.7%.
